# Laboratory results: PubChem BioAssay AID1259281 (Sanger Institute, 2017)
# Assay: 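Find knock-downs that kill colorectal cancer cells alone or strengthen targeted drugs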 (primary screen)
# Cell system: human COLO678 colorectal cancer cell line
# Reagents: siRNA pool against human genes
# Treatment: anchor drugs at fixed doses: BYL719 1 µM, cetuximab 5 µg/ml or trametinib 10 nM; DMSO vehicle for the siRNA-alone arm
# Read-out: 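Cell viability compared with non-targeting pool wells, averaged over replicates; knock-down-alone effect also as robust z-score; synergy scores set knock-down plus drug against expected joint effect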
# Direction: robust z-score, siRNA alone: higher = more viable cells; strongly negative means essential; viability, siRNA alone: higher = more surviving cells; synergy score with BYL719 and synergy score with trametinib and synergy score with cetuximab: higher = stronger synergistic killing with drug
# Hit rule: 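Called essential (knock-down alone) if knock-down by itself drops cell number to a robust z-score under -3; all others no change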
# Calls: active = essential (knock-down alone); inactive = no change
# The whole screen tested 794 reagents; below is a random part of them. Over the whole deposit, 22 (2.8%) were called active. 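Calls rest on knock-down alone only; drug synergy scores play no part in them.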 Viability is capped at 1. Not stated in the record: the amount of reagent, the time to read-out.
The opening 2 records, ahead of the listing:
gene,"robust z-score, siRNA alone","viability, siRNA alone (fraction of control)",synergy score with BYL719,synergy score with trametinib,synergy score with cetuximab,Call
SPHK1 (GeneID 8877),0.473,1,-0.0299,0.0792,0.0499,inactive
CSNK2A2 (GeneID 1459),0.473,1,-0.0919,0.0902,-0.0245,inactive

Results, repeating the preview:
gene,"robust z-score, siRNA alone","viability, siRNA alone (fraction of control)",synergy score with BYL719,synergy score with trametinib,synergy score with cetuximab,Call
SPHK1 (GeneID 8877),0.473,1,-0.0299,0.0792,0.0499,inactive
CSNK2A2 (GeneID 1459),0.473,1,-0.0919,0.0902,-0.0245,inactive
TGFBR1 (GeneID 7046),0.473,1,-0.0456,-0.0547,-0.0315,inactive
FES (GeneID 2242),-1.75,0.929,-0.0319,0.00846,-0.0619,inactive
KHK (GeneID 3795),0.375,0.997,0.0475,0.033,0.0519,inactive
OBSCN (GeneID 84033),0.473,1,-0.0919,-0.00101,0.0189,inactive
TNK2 (GeneID 10188),0.473,1,-0.0919,-0.00333,-0.0681,inactive
AK4 (GeneID 205),-0.943,0.955,0.0212,-0.0272,-0.0217,inactive
KSR1 (GeneID 8844),-4.49,0.842,0.0468,-0.0497,-0.0593,active
PAPSS2 (GeneID 9060),0.473,1,0.131,-0.00532,0.0354,inactive
CDKN2D (GeneID 1032),0.473,1,-0.05,0.121,0.0369,inactive
CSNK1G2 (GeneID 1455),0.473,1,0.00308,0.0202,0.0488,inactive
MARK4 (GeneID 57787),0.25,0.993,0.00303,0.0444,0.0157,inactive
BMPR2 (GeneID 659),0.473,1,0.0508,0.0482,0.0187,inactive
FXR1 (GeneID 8087),-0.285,0.976,0.00011,0.0315,0.0045,inactive
PNCK (GeneID 139728),0.473,1,0.0656,0.111,-0.000568,inactive
PGK2 (GeneID 5232),-1.14,0.949,-0.121,-0.00891,-0.0919,inactive
PHKG1 (GeneID 5260),0.473,1,-0.0919,-0.0566,-0.0534,inactive
CDK6 (GeneID 1021),-0.4,0.972,0.112,0.0259,-0.000559,inactive
INSR (GeneID 3643),-0.226,0.978,-0.112,-0.0388,-0.0282,inactive
